According to publication doi:10.1101/2025.11.27.690698 (bioRxiv, 2025):
Results are given in words; binding and its absence hold for the method and conditions named.

Amino acid sequences for entries named in this document (tags omitted). A change or cut given only in a name is not applied to a line headed by its entry. Residues count along the entry.
UniProt Q86W26, 4-482, stated change not applied: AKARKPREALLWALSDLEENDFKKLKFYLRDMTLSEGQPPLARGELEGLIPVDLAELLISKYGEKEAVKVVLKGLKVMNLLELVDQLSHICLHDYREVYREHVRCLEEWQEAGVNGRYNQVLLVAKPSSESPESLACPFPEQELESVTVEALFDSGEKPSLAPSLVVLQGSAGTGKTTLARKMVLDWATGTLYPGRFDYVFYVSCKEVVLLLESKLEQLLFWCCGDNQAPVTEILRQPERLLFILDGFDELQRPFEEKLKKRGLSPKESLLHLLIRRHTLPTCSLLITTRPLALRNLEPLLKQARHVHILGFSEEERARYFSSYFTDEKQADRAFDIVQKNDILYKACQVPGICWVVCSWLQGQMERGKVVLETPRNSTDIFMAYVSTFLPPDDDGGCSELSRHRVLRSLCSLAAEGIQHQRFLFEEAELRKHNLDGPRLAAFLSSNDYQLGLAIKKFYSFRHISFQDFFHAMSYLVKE

Target: human NLRP10ΔHD2–tail (aa 4-482) (human) (UniProt Q86W26)
Experiment: SEC

Substance: human NLRP10ΔHD2–tail (aa 4-482) (from UniProt Q86W26 4-482) (domain or fragment)
- binding: no binding
